No constants are given. Whether binding was seen depends on the method and setting. Sequences can lack the tags named with a protein.
Target: T1, full-length HMT-1 as split-ubiquitin fusion (HMT-1-CubPLV bait; HMT-1-NubG prey) (C. elegans) (UniProt G5EFD4)
T1 sequence: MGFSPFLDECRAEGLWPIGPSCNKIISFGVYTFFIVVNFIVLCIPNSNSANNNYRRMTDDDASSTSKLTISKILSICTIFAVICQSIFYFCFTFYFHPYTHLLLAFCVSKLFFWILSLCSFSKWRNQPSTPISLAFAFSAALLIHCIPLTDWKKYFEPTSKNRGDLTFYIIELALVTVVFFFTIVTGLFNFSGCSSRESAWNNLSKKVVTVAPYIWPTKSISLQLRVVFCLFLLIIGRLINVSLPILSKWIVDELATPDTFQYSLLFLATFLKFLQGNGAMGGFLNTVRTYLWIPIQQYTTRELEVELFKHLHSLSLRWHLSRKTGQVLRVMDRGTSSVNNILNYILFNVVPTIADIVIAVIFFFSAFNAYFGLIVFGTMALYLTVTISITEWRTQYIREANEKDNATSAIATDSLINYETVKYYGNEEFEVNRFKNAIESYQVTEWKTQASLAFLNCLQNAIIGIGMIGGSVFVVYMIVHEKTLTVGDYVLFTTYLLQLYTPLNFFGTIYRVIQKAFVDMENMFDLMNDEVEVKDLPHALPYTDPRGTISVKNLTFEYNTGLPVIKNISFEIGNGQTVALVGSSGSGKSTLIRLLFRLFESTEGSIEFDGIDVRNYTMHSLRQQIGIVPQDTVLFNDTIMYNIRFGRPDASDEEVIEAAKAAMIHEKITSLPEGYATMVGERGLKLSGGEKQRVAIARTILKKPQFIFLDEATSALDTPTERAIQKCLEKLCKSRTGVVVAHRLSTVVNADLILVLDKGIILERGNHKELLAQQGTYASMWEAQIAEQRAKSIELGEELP
Assay: two-hybrid; mating-based split-ubiquitin system (mbSUS) in diploid S. cerevisiae: CubPLV bait and NubG prey; growth on SC medium lacking adenine and histidine and β-galactosidase activity; bait repressed by 75 µM methionine as control

binding: no binding
Substance: N-terminal extension domain (NTE) of HMT-1 fused to NubG (C. elegans) (domain or fragment)

From PMC2944878
